No constants are given. Whether binding was seen depends on the method and setting. Binding seen in cells or lysates may run through a third protein. A result given as binding can be weak or reduced; the word gives no strength.
Key:
Experiment in all cases: co-IP; 293T cells co-transfected with a FLAG-tagged and an HA-tagged NICD; lysates 48 h after transfection; anti-FLAG resin, western blot with anti-HA
[1] = molecular target: Notch4 intracellular domain (mouse), full-length N4ICD (mouse) (UniProt P31695)
[2] = molecular target: Notch3 intracellular domain (mouse), N3ICD (mouse) (UniProt Q61982)
[3] = molecular target: Notch2 intracellular domain (mouse), N2ICD (mouse) (UniProt O35516)
[4] = molecular target: N1ICD lacking the C-terminus (RAM/Ank), FLAG-tagged (mouse) (UniProt Q01705)
[5] = molecular target: isolated N1ICD ankyrin domain (Ank), FLAG-tagged (mouse) (UniProt Q01705)

The chains behind the UniProt entries cited, without tags or fusion partners. Where a name states a change or a piece, a line headed by the entry shows the natural chain unless it says otherwise.
UniProt Q61982: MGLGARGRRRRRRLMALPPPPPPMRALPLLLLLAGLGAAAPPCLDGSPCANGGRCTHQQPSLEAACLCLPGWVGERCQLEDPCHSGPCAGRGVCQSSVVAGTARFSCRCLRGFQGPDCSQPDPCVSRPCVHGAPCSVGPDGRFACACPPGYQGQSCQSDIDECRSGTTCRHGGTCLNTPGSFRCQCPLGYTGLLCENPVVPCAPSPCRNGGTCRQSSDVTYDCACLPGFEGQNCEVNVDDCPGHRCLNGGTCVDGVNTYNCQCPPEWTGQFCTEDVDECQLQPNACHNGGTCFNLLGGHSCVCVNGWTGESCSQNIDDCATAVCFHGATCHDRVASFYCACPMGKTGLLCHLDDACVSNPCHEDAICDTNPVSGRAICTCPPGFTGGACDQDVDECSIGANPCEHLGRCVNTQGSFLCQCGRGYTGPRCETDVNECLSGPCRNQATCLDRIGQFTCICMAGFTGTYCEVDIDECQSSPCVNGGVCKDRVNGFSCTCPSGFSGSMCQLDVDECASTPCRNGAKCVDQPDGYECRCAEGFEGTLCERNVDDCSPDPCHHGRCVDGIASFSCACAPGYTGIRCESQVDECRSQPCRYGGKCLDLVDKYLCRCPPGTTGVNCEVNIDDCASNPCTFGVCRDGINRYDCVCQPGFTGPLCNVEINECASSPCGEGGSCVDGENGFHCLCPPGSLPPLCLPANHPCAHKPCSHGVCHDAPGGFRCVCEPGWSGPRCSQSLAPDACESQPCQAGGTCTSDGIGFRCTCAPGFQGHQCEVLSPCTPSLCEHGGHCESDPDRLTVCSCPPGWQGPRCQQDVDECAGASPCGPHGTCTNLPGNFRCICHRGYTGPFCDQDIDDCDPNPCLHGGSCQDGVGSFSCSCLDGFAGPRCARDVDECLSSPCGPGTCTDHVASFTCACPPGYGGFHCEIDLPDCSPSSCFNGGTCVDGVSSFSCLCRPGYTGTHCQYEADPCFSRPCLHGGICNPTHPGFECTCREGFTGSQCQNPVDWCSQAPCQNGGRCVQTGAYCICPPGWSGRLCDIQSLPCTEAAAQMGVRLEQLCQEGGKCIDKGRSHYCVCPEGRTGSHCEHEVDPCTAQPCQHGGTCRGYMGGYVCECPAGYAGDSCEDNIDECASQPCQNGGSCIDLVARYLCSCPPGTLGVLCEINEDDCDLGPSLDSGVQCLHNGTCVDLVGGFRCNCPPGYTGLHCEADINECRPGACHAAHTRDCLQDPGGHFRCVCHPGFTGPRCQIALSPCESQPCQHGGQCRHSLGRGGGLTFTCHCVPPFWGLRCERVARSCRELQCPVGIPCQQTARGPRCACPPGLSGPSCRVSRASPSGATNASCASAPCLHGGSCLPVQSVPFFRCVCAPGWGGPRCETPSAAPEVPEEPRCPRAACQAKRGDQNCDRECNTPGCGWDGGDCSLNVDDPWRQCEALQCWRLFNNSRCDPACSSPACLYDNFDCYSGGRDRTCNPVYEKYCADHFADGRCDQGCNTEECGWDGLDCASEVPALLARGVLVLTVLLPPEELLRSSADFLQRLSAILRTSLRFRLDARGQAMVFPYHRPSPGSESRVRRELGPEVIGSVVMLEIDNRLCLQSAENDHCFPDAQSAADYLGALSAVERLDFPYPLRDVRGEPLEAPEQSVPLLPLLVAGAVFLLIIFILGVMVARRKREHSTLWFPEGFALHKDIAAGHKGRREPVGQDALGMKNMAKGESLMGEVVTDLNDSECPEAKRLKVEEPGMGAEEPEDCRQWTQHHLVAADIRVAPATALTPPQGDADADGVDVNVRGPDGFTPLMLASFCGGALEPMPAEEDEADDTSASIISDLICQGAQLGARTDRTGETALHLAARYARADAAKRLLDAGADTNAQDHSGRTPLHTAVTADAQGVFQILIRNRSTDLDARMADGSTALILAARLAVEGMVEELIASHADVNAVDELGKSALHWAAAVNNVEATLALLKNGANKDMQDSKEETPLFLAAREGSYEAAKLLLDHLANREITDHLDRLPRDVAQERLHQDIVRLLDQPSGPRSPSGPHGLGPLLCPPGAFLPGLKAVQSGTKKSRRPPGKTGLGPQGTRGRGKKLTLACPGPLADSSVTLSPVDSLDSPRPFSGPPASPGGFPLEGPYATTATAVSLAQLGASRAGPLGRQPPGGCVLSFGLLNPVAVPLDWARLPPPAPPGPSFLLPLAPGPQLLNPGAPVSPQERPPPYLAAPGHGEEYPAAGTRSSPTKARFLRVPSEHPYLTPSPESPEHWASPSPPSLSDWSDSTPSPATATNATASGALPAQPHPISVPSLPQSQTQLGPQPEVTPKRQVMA
UniProt Q01705: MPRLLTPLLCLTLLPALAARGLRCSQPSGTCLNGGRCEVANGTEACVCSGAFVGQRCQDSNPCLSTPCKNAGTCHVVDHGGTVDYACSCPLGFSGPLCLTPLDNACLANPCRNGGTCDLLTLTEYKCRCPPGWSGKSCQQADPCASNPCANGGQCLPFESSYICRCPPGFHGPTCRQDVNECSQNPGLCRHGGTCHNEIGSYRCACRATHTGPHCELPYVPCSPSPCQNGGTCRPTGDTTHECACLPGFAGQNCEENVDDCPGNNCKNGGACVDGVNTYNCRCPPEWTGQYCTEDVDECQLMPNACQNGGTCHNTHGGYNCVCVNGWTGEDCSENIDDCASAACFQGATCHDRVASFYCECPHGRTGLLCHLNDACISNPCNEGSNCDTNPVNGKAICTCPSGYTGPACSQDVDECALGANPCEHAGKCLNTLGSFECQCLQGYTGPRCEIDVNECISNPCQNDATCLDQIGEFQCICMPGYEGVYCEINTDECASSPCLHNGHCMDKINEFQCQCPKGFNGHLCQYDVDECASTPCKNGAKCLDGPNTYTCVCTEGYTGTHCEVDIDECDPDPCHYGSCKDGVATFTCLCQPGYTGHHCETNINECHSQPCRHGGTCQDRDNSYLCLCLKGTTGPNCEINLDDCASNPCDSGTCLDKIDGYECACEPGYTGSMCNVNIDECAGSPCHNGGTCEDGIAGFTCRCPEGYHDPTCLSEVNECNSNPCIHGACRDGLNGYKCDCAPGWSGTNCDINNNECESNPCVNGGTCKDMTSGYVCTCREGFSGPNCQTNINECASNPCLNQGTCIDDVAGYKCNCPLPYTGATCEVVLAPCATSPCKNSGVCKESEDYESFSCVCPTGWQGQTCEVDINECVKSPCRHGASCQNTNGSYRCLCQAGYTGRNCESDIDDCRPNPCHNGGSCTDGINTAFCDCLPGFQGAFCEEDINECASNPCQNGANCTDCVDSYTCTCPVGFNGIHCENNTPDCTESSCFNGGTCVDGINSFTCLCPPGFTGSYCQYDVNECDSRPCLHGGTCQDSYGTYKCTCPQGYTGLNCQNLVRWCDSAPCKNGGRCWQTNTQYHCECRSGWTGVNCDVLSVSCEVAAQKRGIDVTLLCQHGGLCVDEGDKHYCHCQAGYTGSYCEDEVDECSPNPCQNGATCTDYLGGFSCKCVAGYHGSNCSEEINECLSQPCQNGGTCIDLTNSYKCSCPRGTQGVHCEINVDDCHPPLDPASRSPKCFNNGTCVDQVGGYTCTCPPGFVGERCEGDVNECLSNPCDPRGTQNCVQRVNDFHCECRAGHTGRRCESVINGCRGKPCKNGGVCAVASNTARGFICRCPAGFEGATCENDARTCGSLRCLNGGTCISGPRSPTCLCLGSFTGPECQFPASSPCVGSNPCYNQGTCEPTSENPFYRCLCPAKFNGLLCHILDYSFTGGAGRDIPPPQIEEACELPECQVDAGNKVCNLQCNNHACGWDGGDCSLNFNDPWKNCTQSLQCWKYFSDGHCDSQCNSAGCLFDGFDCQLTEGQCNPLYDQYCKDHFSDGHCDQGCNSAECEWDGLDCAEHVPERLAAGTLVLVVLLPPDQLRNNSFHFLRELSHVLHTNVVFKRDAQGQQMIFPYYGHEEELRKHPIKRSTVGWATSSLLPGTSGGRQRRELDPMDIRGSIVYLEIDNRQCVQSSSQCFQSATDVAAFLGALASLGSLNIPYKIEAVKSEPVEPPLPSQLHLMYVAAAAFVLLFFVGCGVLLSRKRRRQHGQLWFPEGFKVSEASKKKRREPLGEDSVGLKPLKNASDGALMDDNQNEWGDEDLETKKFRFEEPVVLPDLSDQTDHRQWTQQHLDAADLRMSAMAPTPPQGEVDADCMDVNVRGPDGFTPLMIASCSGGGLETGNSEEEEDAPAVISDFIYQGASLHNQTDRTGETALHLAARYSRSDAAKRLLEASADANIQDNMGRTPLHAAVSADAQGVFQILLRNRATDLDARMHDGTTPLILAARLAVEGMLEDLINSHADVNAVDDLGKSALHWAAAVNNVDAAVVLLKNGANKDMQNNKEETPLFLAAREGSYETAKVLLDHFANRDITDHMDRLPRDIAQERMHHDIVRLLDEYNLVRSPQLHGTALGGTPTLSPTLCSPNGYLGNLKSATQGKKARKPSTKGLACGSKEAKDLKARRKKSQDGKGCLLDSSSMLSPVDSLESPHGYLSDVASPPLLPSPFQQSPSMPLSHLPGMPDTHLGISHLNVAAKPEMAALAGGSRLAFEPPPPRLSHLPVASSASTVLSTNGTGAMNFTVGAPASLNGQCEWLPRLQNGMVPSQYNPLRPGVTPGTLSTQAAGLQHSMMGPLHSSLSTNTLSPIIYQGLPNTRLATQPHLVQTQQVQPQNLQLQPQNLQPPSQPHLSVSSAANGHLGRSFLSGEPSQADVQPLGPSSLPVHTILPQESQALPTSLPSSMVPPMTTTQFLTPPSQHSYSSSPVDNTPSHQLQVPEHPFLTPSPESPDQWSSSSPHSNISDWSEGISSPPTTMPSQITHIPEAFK

| binding [1] | binding [2] | binding [3] | binding [4] | binding [5] | Substance |
| --- | --- | --- | --- | --- | --- |
| binds |  |  |  |  | Notch1 intracellular domain (mouse), full-length N1ICD (from UniProt Q01705) (domain or fragment) |
| binds | binds weakly |  |  |  | Notch2 intracellular domain (mouse), N2ICD (from UniProt O35516) (domain or fragment) |
| binds |  | binds |  |  | Notch3 intracellular domain (mouse), N3ICD (from UniProt Q61982) (domain or fragment) |
|  | binds | binds | binds | binds | Notch4 intracellular domain (mouse), full-length N4ICD (from UniProt P31695) (domain or fragment) |
